Assay results: publication PMC10491434, “SPOP targets the immune transcription factor IRF1 for proteasomal degradation” (eLife, 2023)
No constants are given. Whether binding was seen depends on the method and setting. In cells and extracts the contact can be indirect. Some results given as binding are weak or reduced against the parent protein; the word gives no strength. Each block holds one molecule with its values, some of them ahead of it.

By UniProt entry, the sequences of proteins in these tests, tags left out.
UniProt O43791: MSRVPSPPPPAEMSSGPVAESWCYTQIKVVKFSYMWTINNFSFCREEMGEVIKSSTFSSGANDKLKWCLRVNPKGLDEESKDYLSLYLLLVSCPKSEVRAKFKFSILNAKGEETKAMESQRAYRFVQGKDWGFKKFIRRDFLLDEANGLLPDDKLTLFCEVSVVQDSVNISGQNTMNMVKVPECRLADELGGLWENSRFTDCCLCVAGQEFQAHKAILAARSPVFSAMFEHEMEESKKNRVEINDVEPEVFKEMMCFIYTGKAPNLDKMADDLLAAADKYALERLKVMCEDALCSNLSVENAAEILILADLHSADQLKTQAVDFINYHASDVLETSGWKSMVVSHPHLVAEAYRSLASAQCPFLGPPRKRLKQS

Experiments:
[1] = target: T1, wild-type interferon regulatory factor 1 (wtIRF1) (human) (UniProt P10914); assay: co-IP; IRF1 precipitated with anti-IRF1 antibody and Protein A/G magnetic beads from lysates of transfected HEK-293T cells (36 hr post-transfection, epoxomicin 4 hr); Frackelton lysis buffer, overnight at 4°C, washes with RIPA buffer with 300 mM NaCl; western blot for SPOP
T1 sequence: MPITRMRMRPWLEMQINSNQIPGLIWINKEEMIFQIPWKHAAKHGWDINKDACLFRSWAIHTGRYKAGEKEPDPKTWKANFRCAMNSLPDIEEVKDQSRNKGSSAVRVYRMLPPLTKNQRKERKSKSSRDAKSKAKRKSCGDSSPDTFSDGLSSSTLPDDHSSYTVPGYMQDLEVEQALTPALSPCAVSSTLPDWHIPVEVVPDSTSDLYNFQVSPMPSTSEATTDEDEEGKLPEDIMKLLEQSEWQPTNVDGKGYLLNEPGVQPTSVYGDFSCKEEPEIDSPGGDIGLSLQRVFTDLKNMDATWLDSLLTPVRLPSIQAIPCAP

[2] = target: T2, IRF1-SBDmut (IRF1 mutant in which the S/T residues in the four SPOP binding domains were mutated to A) (human) (UniProt P10914); assay: as above
T2 sequence: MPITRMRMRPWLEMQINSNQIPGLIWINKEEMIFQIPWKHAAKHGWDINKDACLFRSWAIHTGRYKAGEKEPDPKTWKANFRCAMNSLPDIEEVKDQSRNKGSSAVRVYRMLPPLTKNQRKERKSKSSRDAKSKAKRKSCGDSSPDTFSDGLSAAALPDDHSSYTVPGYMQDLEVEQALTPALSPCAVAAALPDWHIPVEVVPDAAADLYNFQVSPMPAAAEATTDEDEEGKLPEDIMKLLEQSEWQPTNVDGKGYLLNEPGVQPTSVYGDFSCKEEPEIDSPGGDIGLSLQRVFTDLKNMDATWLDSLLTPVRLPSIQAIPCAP

[3] = target: Ollas-tagged wild-type speckle type BTB/POZ protein (wtSPOP) (UniProt O43791); assay: co-IP; SPOP precipitated with anti-Ollas antibody and Protein G Sepharose from lysates of transfected HEK-293T cells (36 hr post-transfection, epoxomicin 4 hr); Frackelton lysis buffer, overnight at 4°C, washes with RIPA buffer with 300 mM NaCl; western blot for IRF1

binding [1]: binds | binding [2]: no binding
Molecule: Ollas-tagged wild-type speckle type BTB/POZ protein (wtSPOP) (from UniProt O43791 1-374)

binding [3]: binds
B1: wild-type interferon regulatory factor 1 (wtIRF1) (protein, UniProt P10914 1-325)
chain: T1 sequence

binding [3]: no binding
B2: IRF1-SBDmut (IRF1 mutant in which the S/T residues in the four SPOP binding domains were mutated to A) (protein, UniProt P10914 1-325)
chain: T2 sequence
